No constants are given. Whether binding was seen depends on the method and setting. Some entries that bind do so weakly or less than the wild type.
Tests used:
[1] = target: lex-CD18cyt (LexA fusion of the cytoplasmic domain of CD18, the beta2 integrin subunit; construct lex 202-cd18) (UniProt P0A7C2); assay: yeast two-hybrid library screen with the lex202-cd18 bait, X-GAL indicator plates
[2] = target: lex-CD18cyt (LexA fusion of the cytoplasmic domain of CD18, the beta2 integrin subunit; construct lex 202-cd18) (UniProt P0A7C2); assay: yeast two-hybrid, X-GAL colour
[3] = target: lex-CD18cyt (LexA fusion of the cytoplasmic domain of CD18, the beta2 integrin subunit; construct lex 202-cd18) (UniProt P0A7C2); assay: yeast two-hybrid, X-GAL colour (blue indicates an interaction)

Protein sequences, listed by entry. Tags and fused reporters are not part of them. Lines headed by an entry give the natural chain unless they say otherwise; changes in a name come on top.
UniProt P0A7C2: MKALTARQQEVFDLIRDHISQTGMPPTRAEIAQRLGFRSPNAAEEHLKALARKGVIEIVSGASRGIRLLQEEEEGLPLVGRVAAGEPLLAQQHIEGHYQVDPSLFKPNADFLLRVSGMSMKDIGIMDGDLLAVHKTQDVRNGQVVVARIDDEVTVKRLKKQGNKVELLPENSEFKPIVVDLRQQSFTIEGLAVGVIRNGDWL
UniProt Q2KI41: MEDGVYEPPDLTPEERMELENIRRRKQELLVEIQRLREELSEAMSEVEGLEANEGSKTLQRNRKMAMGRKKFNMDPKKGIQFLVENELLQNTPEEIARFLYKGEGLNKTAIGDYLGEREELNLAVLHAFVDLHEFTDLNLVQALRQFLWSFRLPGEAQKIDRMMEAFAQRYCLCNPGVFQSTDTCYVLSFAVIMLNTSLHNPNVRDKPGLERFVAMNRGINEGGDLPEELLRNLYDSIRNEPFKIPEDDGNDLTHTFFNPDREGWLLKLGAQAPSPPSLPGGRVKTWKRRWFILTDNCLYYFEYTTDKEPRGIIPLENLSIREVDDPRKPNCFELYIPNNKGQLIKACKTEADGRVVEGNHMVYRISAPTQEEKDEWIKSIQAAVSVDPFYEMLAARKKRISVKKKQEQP

Measured: binding

product of cDNA cts18.1 (cytohesin-2) expressed from pJG4-5 (from UniProt Q2KI41 133-410)
binds: all assays above

From patent US6573362
